According to patent US20150057335A1, “NOVEL FUSION GENES IDENTIFIED IN LUNG CANCER” (National Cancer Center, priority 2013, published 2015):
At least one structure is not confirmed: it was looked up by name or label, or the drawing left a doubt.

Tested on: EZR-ERBB4 fusion protein
Test: Constitutive activation of ERBB4 kinase by EZR-ERBB4 fusion and its inhibition (NIH3T3, immunoblotting)
Assay type: cell-based, mouse
Settings: NIH3T3 cells stably expressing EZR-ERBB4, serum-starved, treated for 2 hours; FIG. 10B
Text: Whole-cell lysates were subjected to immunoblotting.

CN(C)C/C=C/C(=O)Nc1cc2c(Nc3ccc(F)c(Cl)c3)ncnc2cc1O[C@H]1CCOC1 [afatinib]
Phosphorylation of ERBB4: suppressed
Phosphorylation of ERK: suppressed
